In patent US20170029530A1:
Numbering of substitutions follows the chain as printed. Results are given in words; binding and its absence hold for the method and conditions named. Some entries that bind do so weakly or less than the wild type.

Chains of the proteins cited; added tags and fusions are not shown. Lines headed by an entry give the natural chain unless they say otherwise; changes in a name come on top. Residues count along the entry.
UniProt Q4R7M2, residues 36-463: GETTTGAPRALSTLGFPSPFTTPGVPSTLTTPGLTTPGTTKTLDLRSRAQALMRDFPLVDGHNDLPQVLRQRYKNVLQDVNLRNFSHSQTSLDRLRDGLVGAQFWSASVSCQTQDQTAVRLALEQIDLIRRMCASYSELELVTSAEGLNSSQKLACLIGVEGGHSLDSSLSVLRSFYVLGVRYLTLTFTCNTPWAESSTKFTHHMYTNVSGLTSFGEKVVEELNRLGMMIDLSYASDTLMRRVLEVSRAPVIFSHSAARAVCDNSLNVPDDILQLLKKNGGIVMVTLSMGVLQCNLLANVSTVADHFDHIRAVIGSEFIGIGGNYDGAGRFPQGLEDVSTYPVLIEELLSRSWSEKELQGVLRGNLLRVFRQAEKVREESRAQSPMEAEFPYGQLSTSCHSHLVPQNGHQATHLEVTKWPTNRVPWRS
UniProt Q5U2X4: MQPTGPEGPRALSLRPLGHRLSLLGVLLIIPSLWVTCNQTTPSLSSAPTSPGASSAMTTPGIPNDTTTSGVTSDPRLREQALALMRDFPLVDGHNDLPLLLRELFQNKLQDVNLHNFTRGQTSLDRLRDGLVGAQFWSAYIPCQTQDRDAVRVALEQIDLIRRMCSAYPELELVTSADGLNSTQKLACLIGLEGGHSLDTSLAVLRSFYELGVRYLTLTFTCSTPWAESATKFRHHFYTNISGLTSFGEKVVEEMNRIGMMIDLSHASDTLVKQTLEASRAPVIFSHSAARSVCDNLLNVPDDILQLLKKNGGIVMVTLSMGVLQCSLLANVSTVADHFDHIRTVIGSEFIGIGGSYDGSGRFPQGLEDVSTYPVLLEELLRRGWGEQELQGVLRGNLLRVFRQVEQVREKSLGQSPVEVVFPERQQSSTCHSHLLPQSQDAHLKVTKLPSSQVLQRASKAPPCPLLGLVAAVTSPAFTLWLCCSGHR

B1: SC34.36 (antibody, mouse IgG2a, V domains shown)
VH: QVQLQQPGSVLVRPGASVKLSCKASGYTFTSYWMHWVKQRPGQGLEWIGEISPTSGRPNYNAKFKGKATLTVDTSSSTAYVDLSSLTSEDSAVYYCAKGEGYYGKAFDYWGQGTTLTVSS
VL: DIQMTQTTSSLSASLGDRVTISCRASQDISNYLNWYQQKPDGTVKLLIYYTSRLHSGVPSRFSGSGSGTDYSLTISNLEQEDIATYFCQQGNTLPWTFGGGTKLEIK
B2: SC34.4 (antibody, mouse IgG2b, V domains shown)
VH: QVQLQQSGAELARPGASVKLSCKASGYTFTSYGINWVKQRTGQGLEWIGEIYPGSGNIYYNEKFKGKAILTTDKSSNTAYMQLSSLTSEDSAVYFCARVHDYGSWFPYWAQGTLVTVSA
VL: DIVMSQSPSSLTVSVGEKVTMSCKSSQSLLYSRNQKNYLAWYQQKPGQSPKLLIYWASTRDSGVPDRFTGTGSGTDFSLTISSVKTEDLAVYYCHQHYRYPLTFGAGTKLELK
B3: SC34.7 (antibody, mouse IgG1, V domains shown)
VH: B2 VH with L4V, I58A, G66V, I69K, K74N, N77R, S84I, S85N, A110G
VL: B2 VL with T12A, N34Y, D61E, T71S, S78T, T86A, H97Y
B4: SC34.19 (antibody, mouse IgG1, V domains shown)
VH: B2 VH with G33A, N35T, I58T, Y59F, Y60F, K67R, I69T, N77S, A110G
VL: DIVMSQSPSALAVSVGEKITMSCKCSQSLLHSRDQKNYLAWYQQKPGQSPKLLIYWASTRESGVPDRFTGSGSGTDFTLTINTVKAEDLAVYYCQQHYRYPLTFGAGTKLELK
B5: SC34.86 (antibody, mouse IgG1, V domains shown)
VH: B2 VH with G33T, N35T, I58T, I69T, N77S, A110G
VL: B4 VL with I2T, A10S, I19V, M21L, C25S, H31Y, D34Y, I54L, N82S, T83S
B6: SC34.67 (antibody, mouse IgG2a, V domains shown)
VH: B2 VH with K19R, N57D, I58S, E62K, K63T, N77S, S88P, A110G, Q111P, T113A
VL: DMVMSQSPSSLAVSVGEKVALSCKSSQSLLHSRDQKNYLAWYQQKPGQSPKLLIHWASTRESGVPARFTGSGSGTDFTLTISSVKAEDLAVYYCQQSYRYPLTFGAGTKLELK
B7: SC34.13 (antibody, mouse IgG2a, V domains shown)
VH: B2 VH with L4V, G33A, N35S, I58T, E62G, I69T, N77S, H100D, A110G
VL: DIVMSQSPSSLAVSVGEKVTLSCKSSQSLLYSRYQKNYLAWYQQKPGQSPRLVIYWASTRESGVPDRFTGSGSGTDFTLTISSVKAEDLVVYYCQQYYRYPLTFGSGTKLELK
B8: SC34.20 (antibody, mouse IgG1, V domains shown)
VH: QVQLQQSGSELARPGASVKLSCKASGYTFRSYAISWVRQRTGQGLEWIGEIYPESGNTDYNAQFKGKATLTTDKSSSTAYMQLSSLTSEASAVYFCARVHDYGSWFPYWGQGTLVTVSA
VL: B7 VL with A12T, L21M, R33T, Y42F, R51K, V53L, V90A, S106A
B9: SC34.25 (antibody, mouse IgG1, V domains shown)
VH: QVQLQQSGVELARPGASVKVSCKASGYTFTSYAISWVKQRTGQGLEWIGEIYPGSGETYYNEKFKGKATLTTDKSSSTAYMHLSSLTSEDSAVYLCGRVNDYGSWFPYWGQGTLVTVSA
VL: B7 VL with V15G, L21M, L39V, R51K, V53L, V90A, S106A
B10: SC34.16 (antibody, mouse IgG1, V domains shown)
VH: QVQLQQSGTELARPGASVKLSCKASEYTFTSYAITWVRQRTGQGLEWIGEIYPGSGNTYYNETFKGKATLTSDKSSSTASMQLSSLTSEDSAVYFCARVHDYGSWFPYWGQGTLVTVSA
VL: B7 VL with L21M, R51K, V53L, A57S, V90A, V91D, S106A
B11: SC34.27 (antibody, mouse IgG1, V domains shown)
VH: B2 VH with T30R, S55R, N57D, I58V, K63N, I69T, N77S, A110G
VL: B2 VL with T12A, D61E, T71S, S78T, S82N, T86A, H97Y
B12: SC34.89 (antibody, mouse IgG1, V domains shown)
VH: B2 VH with G33A, N35S, G42R, N57D, Y59H, N61S, E62G, I69S, N77S, A110G
VL: DIVMSQSPSSLGVSVGEKVTLSCKSSQSLFNKRDQKNYLAWYQQKPGQSPKLLIYWASTRESGVPDRFTGSGSGTDFILTIRSVKAEDLAVYYCHQSYRYPLTFGAGTKLELK
B13: SC34.76 (antibody, mouse IgG1, V domains shown)
VH: B2 VH with A24T, G26E, G33A, I51V, I58T, N77S, A79G, S85N, A110G
VL: B7 VL with K18R, L21M, S22N, L30F, R51K, V53L, V90A, S106A
B14: SC34.91 (antibody, mouse IgG1, V domains shown)
VH: B8 VH with S9A, R38K, E54G, N57D, D59Y, A62E, Q63N, A90D, Y102N
VL: B7 VL with L21M, R33T, Y42F, R51K, V53L, V90A, S106A
B15: SC34.24 (antibody, mouse IgG1, V domains shown)
VH: B10 VH with T9P, R38K, T41A, N57D, T63K, S72T, S80Y
VL: B7 VL with L21M, S22N, R51K, V53L, V90A, S106A
B16: SC34.63 (antibody, mouse IgG1)
light chain: B7 VL with L21M, R33K, R51K, V53L, G72E, V90A, F104V, S106A
heavy chain: QVQLQQSGVELARPGASVKLSCKASGYTFTSYGIDWVKQRTGQGLEWIGETYPGRGDTYYNENFKGKATLTTDKSSSTAFLQLSSLTSEDSAVYFCARVHDYGSWFPYWGQGTLVTVSA
B17: SC34.95 (antibody, mouse IgG1)
light chain: DIVLSQSPSSLAVSVGEKVTMSCKSSQSLLNSRDRKNYLAWCQQKPGQSPKVMIYWASTRESGVPDRFTGSGSGTDFTLTISSVKAEDLAVYYCQQYYSYPLTVGAGTKLELK
heavy chain: QVQVKQSGAELARPGASVKLSCKASGYTFTSYAINWLKQRTGQGLEWIGEIYPGSGNTYYNESFKNKATLTTDKSSTTAYMQLNSLTSEDSAVYFCARVHDYGSWFPYWGQGTLVTVSA
B18: SC34.87 (antibody, mouse IgG2a, V domains shown)
VH: QVQLQQSGAELAKPGASVKMSCKASGYTFTSYWMLWVKQRPGQGLEWIGYIDPRNGYTEYNQKFKDKATLTADKSSSTAYMQLSSLTSEDSAVYYCTRGGNVAMDYWGQGTSVTVSS
VL: DIVMSQSPSSLAVSAGEKVTMSCKSSQSLLNSRTRKNYLAWYQQKPGQSPKLLIYWASTRESGVPGRFTGSGSGTDFTLTISSVQAEDLAVYYCKQSYNLWTFGGGTKLEIK
B19: SC34.49 (antibody, mouse IgG1, V domains shown)
VH: EVQLQQSGPELVKPGSSVKISCKASGYTFTDYHMNWVKQSHGKSLEWIGNINPYYGVSTYNQNLKGTATLTVDKSSSTAYMELRGLTSEDSAVYYCVRRAMDSPRFAYWGQGTLVTVSA
VL: DIQMTQSSSYLSVSLGGRVTITCKASEHINNWLAWYQQKPGNPPRLLISGATSLETGVPSRFSGSGSGKDYTLSITGLQTEDIATYFCQQYRSTPFTFGSGTKLEIK
B20: SC34.50 (antibody, mouse IgG2b, V domains shown)
VH: QVQLQQPGAELVRPGASVKLSCKASGYTFTSYWINWVKQRPGQGLEWIGNIFPSDSYTNYNQKFRDKATLTVDKSSSTAYMQLSSPTSEDSAVYYCTIRTYGNYFDYWGQGTTLTVSS
VL: DIQMTQSSSSFSVSLGDRVTITCKASEDIYNRLAWYQQKPGNAPRLLISGATSLETGVPSRFSGSGSGKDYTLSITSLQTEDVATYYCQQYWSTIFTFGSGTKLEIK
B21: SC34.33 (antibody, mouse IgG1, V domains shown)
VH: QVQLQQSGAELMKPGASVKISCKATGYTFSSYWIEWVKQRPGHGLEWIGEILPGSDKTYYNERFKDKATFTADTSSNTAYMQLSSLTSEDSAVYYCTRRAAAYYSNPEWFAYWGQGTLVTVSA
VL: QIVLTQSPAIMSASLGERVTMTCTASSSVNSFYLHWYQQKPGSSPKLWIHSTSNLASGVPGRFSGSGSGTSYSLTISSMEAEDAATYYCHQYHRSPYTFGGGTKLEIK

Target: cDPEP3 (Macaca fascicularis) (UniProt Q4R7M2)
Assay: ELISA, coated antigen, antibody 1 ug/mL

binding, binds:
B1
B2
B3
B4
B5
B6
B7
B8
B9
B10
B11
B12
B13
B14
B15
B16
B17

Target: rat DPEP3 ECD with histidine tag (rat) (UniProt Q5U2X4)
Assay: ELISA, coated antigen, antibody 1 ug/mL

binding, binds:
B18
B2
B17

Target: T1, human DPEP3 (hDPEP3) protein on the cell surface (human) (UniProt Q9H4B8)
T1 sequence (chain, GPI anchor at the C-terminus after removal of the final 25 amino acids): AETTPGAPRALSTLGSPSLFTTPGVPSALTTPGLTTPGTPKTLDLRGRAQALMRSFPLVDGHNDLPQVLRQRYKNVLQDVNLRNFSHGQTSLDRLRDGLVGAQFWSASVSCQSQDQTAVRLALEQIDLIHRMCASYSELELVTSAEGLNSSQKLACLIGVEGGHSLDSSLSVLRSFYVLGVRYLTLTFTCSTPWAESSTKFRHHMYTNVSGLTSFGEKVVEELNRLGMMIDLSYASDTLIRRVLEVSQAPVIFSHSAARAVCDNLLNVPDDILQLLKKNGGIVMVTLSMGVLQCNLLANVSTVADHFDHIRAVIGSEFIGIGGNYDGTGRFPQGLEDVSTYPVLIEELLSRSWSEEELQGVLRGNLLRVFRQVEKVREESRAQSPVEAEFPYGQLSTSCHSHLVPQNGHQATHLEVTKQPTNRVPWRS
Assay: flow cytometry, HEK-293T cells overexpressing hDPEP3

binding, binds:
B19
B20
B21
B4
B10
